Differences between knockout arms are mostly noise.
What was measured:
[1] = tested on: HCC-38; assay: relative cell number vs DMSO control (72 h) (% of DMSO); higher = less growth inhibition (more cells)
Procedure: (§1)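 QMAP-Seq: a pool of 5 breast cancer cell lines (ZR-75-1, SKBR3, HCC-38, MDA-MB-231, BT-20), each carrying 12 doxycycline-inducible Cas9 sgRNA perturbations (11 knockouts plus non-targeting sgNT), was treated with compounds for 72 h at four 10-fold doses (10 nM-10 uM or 1 nM-1 uM range). Barcodes were amplified and sequenced, and cell number was interpolated from 293T spike-in standard curves. The result is expressed as % of the median of DMSO wells. Two biological replicates.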

[2] = tested on: BT-20; assay: as above
Procedure: as §1

CN(C)C/C=C/C(=O)Nc1cc2c(Nc3ccc(F)c(Cl)c3)ncnc2cc1O[C@H]1CCOC1 [Afatinib]
relative cell number
Settings | [1] | [2]
sgRNA knockout: sgATF3, 10 nM | 95.7 | 105
sgRNA knockout: sgATF3, 100 nM | 103 | 88.7
sgRNA knockout: sgATF3, 1000 nM | 85 | 77.6
sgRNA knockout: sgATF3, 10000 nM | 22.13 | 24
sgRNA knockout: sgATF4, 10 nM | 93.1 | 108
sgRNA knockout: sgATF4, 100 nM | 114 | 86
sgRNA knockout: sgATF4, 1000 nM | 75.3 | 89.7
sgRNA knockout: sgATF4, 10000 nM | 20 | 20.7
sgRNA knockout: sgATF6, 10 nM | 112 | 106
sgRNA knockout: sgATF6, 100 nM | 89.5 | 76.1
sgRNA knockout: sgATF6, 1000 nM | 84.2 | 68.3
sgRNA knockout: sgATF6, 10000 nM | 27.7 | 23.8
sgRNA knockout: sgATG7, 10 nM | 93.9 | 118
sgRNA knockout: sgATG7, 100 nM | 96.5 | 85.9
sgRNA knockout: sgATG7, 1000 nM | 73.9 | 71.2
sgRNA knockout: sgATG7, 10000 nM | 21.6 | 27.3
sgRNA knockout: sgERN1, 10 nM | 96.1 | 101
sgRNA knockout: sgERN1, 100 nM | 97.8 | 66.2
sgRNA knockout: sgERN1, 1000 nM | 74.2 | 73.7
sgRNA knockout: sgERN1, 10000 nM | 20.6 | 26.1
sgRNA knockout: sgHSF1, 10 nM | 105 | 102
sgRNA knockout: sgHSF1, 100 nM | 81.2 | 75.2
sgRNA knockout: sgHSF1, 1000 nM | 92.9 | 81.4
sgRNA knockout: sgHSF1, 10000 nM | 22.6 | 25.9
sgRNA knockout: sgHSF2, 10 nM | 108 | 90.3
sgRNA knockout: sgHSF2, 100 nM | 102 | 71.8
sgRNA knockout: sgHSF2, 1000 nM | 84.4 | 74.6
sgRNA knockout: sgHSF2, 10000 nM | 21.4 | 22.16
sgRNA knockout: sgKEAP1, 10 nM | 121 | 103
sgRNA knockout: sgKEAP1, 100 nM | 101 | 76
sgRNA knockout: sgKEAP1, 1000 nM | 81.7 | 79.6
sgRNA knockout: sgKEAP1, 10000 nM | 21.5 | 23.4
sgRNA knockout: sgNFE2L2, 10 nM | 84.9 | 113
sgRNA knockout: sgNFE2L2, 100 nM | 103 | 85
sgRNA knockout: sgNFE2L2, 1000 nM | 66.3 | 78.5
sgRNA knockout: sgNFE2L2, 10000 nM | 20.6 | 16.3
sgRNA knockout: sgSLC35F2, 10 nM | 88.5 | 108
sgRNA knockout: sgSLC35F2, 100 nM | 102.2 | 76.4
sgRNA knockout: sgSLC35F2, 1000 nM | 75.1 | 79.9
sgRNA knockout: sgSLC35F2, 10000 nM | 19.49 | 22.4
sgRNA knockout: sgXBP1, 10 nM | 91.8 | 91.4
sgRNA knockout: sgXBP1, 100 nM | 104 | 90.6
sgRNA knockout: sgXBP1, 1000 nM | 77.3 | 84.1
sgRNA knockout: sgXBP1, 10000 nM | 22.42 | 22.6

Reference: the supplement of paper PMC7661543
